# Measurements: PubChem BioAssay AID2810 (NMMLSC, 2010)
# The other results are listed elsewhere or left out. The main result of the screen is listed elsewhere. These columns were measured beside it and carry no call.
# Assay: modulators of CD8 T cell-vesicle binding, confirmation, cherry-picked primary hits, two concentrations (AID 2810);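 also: lower values mean blocking of vesicle binding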;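 as to percent response (vesicle binding): ratio of mean FL2 vesicle stain of CD8+ cells to that row's control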
# Settings: 2C CD8+ T cell-vesicle binding, flow cytometry; for double positive events: CD8+/vesicle+ events
# [1] = at 15.4 µM, stronger effect = lower value
Structure (SMILES),double positive events (at 7.7 µM) [%],double positive events [1] [%],percent response (vesicle binding) (at 7.7 µM) [%]
COC(=O)C(Cc1ccccc1)NC(=O)CNC(=O)c1ccc(Br)o1 (centres undefined),27.5,19.2,460
CCN(C(=O)c1cc2c(=O)[nH]c3ccc(C)cc3c2s1)c1cccc(C)c1,10.6,31.3,134
O=C(OCC(=O)N1CCc2ccccc2C1)c1ccc(F)cc1Cl,21.8,25.4,251
O=C(/C=C/c1ccccc1Cl)NCCc1ccccc1,8.2,4.2,395
COc1cc(/C=C/C(=O)OCC(=O)Nc2cccc(Oc3ccccc3)c2)ccc1O,22.2,6.6,209
CCCn1c(SCC(=O)NCc2cccs2)nc2c1c(=O)n(C)c(=O)n2C,32.3,19.6,241
O=C(COC(=O)/C=C/c1ccc(OC(F)F)cc1)NC1CCCC1,19.1,16.4,87
CCOC(=O)c1cnc(=O)[nH]c1C,14.2,10.9,284
COc1cccc(NC(=O)CSc2nc3ccccc3c3nc4ccccc4n23)c1,14.6,30.3,239
O=C(CS(=O)(=O)Cc1ccccc1)N1CCc2ccccc21,7.1,4.4,182
C[C@H](NS(=O)(=O)c1ccccc1)C(=O)OCC(=O)NC(=O)Nc1ccc2c(c1)OCCO2,10,24.8,480
Cn1c(=O)c2[nH]c(-c3ccccc3Cl)c(O)c2n(C)c1=O,9.6,31.4,107
COc1cccc(CN(C)CC(=O)NNC(=O)c2ccc(Cl)cc2)c1,10.7,24.7,262
COc1ccc2nc(N3C(=O)/C(=C/c4ccccc4)NC3=S)sc2c1,40.3,29,289
Cc1ccc(N2CC(C(=O)NC3=NCCS3)CC2=O)cc1 (centres undefined),8.4,10.6,241
Cc1cccc(NC(=O)c2ccc(OCc3c(C)noc3C)cc2)n1,10.5,19.7,387
O=C(NCC(c1ccco1)N1CCc2ccccc2C1)c1ccc(F)cc1 (centres undefined),13,14,170
CC1CCC(C(=O)c2c(O)c3ccccc3oc2=O)CC1 (centres undefined),8,21.2,119
COc1ccc(NS(=O)(=O)c2cc3c4c(c2)CCN4C(=O)CC3)cc1OC,6.1,9.6,103
COc1cc(C2C(C#N)=C(N)Oc3c2ccc2ccccc32)ccc1OCC(=O)Nc1cccc(C)c1 (centres undefined),17.3,20.8,148
COc1ccc(CNC(=O)CCc2ccc(S(=O)(=O)N3CCCCCC3)cc2)cc1,14.8,18.3,528
Cc1nc(-c2ccccc2)[nH]c(=O)c1Oc1ccc(Cl)cc1Cl,13.4,19.9,360
CC(=O)NC(CC(=O)O)c1ccc(F)cc1 (centres undefined),10.9,16.8,354
COC(=O)c1sccc1S(=O)(=O)N1CCCC(N(C)CCc2ccccn2)C1 (centres undefined),19.9,33.7,204
Fc1ccc(CNC(=S)NCc2ccccc2)cc1,9.9,33.6,402
CCOc1ccc(NC(=O)CCC(=O)NNC(=O)c2cccc([N+](=O)[O-])c2)cc1,19.6,31.1,132

Structure (SMILES),double positive events (at 7.7 µM) [%],double positive events [1] [%],percent response (vesicle binding) (at 7.7 µM) [%]
CC(=O)c1ccc(NC(=O)c2ccc3c(Cl)c4c(nc3c2)CCCC4)cc1,15.1,17.6,198
Cc1cccc(N(C(=O)c2snc(C(N)=O)c2N)C(C(=O)NCC2CCCO2)c2ccc(N(C)C)cc2)c1C (centres undefined),6.5,11.5,126
CC(=O)Nc1ccc2nc(C3CC3)n(Cc3ccc(Cl)cc3)c(=O)c2c1,21,6.7,287
COc1ccc2c(c1)OC(c1ccccc1)(C(F)(F)F)NC2=O (centres undefined),17.8,35.8,84.4
CCN(CC)S(=O)(=O)c1ccc(/C(O)=C(\C#N)c2nc3ccccc3n2C)cc1,10.9,17.6,347
CCN(CC)S(=O)(=O)c1ccc2c3c(cccc13)C(=O)N2,9.9,12.3,625
Cc1ccc(S(=O)(=O)N2CCN(S(=O)(=O)N(C)C)CC2)c(C)c1,10.6,18.2,269
OC1(CC#CCN2CCCCC2)c2ccccc2-c2ccccc21,41.9,24,333
COc1ccc(CCNC(=O)c2cccc(NC3=NC4CS(=O)(=O)CC4S3)c2)c(OC)c1 (centres undefined),24.4,24.5,321
O=[N+]([O-])c1ccc2nc(-c3ccccn3)[nH]c2c1,35.9,14.8,389
COc1ccc(N2CCN(c3c(S(=O)(=O)c4ccccc4)cnc4ccc(OC)cc34)CC2)cc1,21.9,13,250
Cc1ccsc1C(=O)N1CCCC(N(C)Cc2ccccc2)C1 (centres undefined),32.3,16,681
C[C@H](CO)N1C[C@H](C)[C@@H](CN(C)C(=O)Nc2ccc3c(c2)OCO3)Oc2c(NC(=O)c3ccncc3)cccc2C1=O,27.1,19,198
Cc1ccn2c(-c3n[nH]c(=S)n3Cc3ccccc3)c(C)nc2c1,9.7,18.7,138
CCCN(C(=O)/C=C/c1nc2ccccc2s1)C1CCS(=O)(=O)C1 (centres undefined),38.9,6,302
CCN(CC)c1ccc(CNc2nc3ccccc3n2CC)cc1,13.4,18,473
CN(C)S(=O)(=O)c1ccc(Cl)c(NC(=O)COc2ccccc2[N+](=O)[O-])c1,11,34.5,312
CC1CCCCN1CCNC(=O)CCc1nnc2n(Cc3ccccc3)c(=O)c3ccccc3n12 (centres undefined),33.3,7.1,369
COC(=O)c1ccccc1NC(=O)C1CCN(C(=O)c2cc(OC)cc(OC)c2)CC1,10.2,6.6,364
COc1cccc(/C=N/NC(N)=S)c1OCc1ccccc1Cl,27.2,10.5,243
CC(NC(=O)Nc1cccnc1)(C(F)(F)F)C(F)(F)F,7.6,22.1,147
Cn1c(N)c(C(=O)COC(=O)c2ccccc2C(=O)c2ccccc2)c(=O)n(C)c1=O,13.5,7.9,163
CCCN1C(=O)C(=O)N(CC(=O)c2cc(C)n(C3CC3)c2C)C1=O,13.4,24.6,424
COc1ccc(Nc2nc(Cl)nc(N3CCN(c4ccc(OC)cc4)CC3)n2)cc1,9.3,23,121
CC(C)c1ccc(NC(=O)COC(=O)[C@H](CCC(N)=O)NC(=O)c2ccc(F)cc2)cc1,29.5,12.4,180
CCCCn1c(N)c(N(CCOC)C(=O)c2ccc(-c3ccc([N+](=O)[O-])cc3)o2)c(=O)[nH]c1=O,16.2,26.2,199

# Single values from above.
# percent response (vesicle binding) (at 7.7 µM) [%] with O=C(/C=C/c1ccccc1Cl)NCCc1ccccc1 reads 395
# double positive events [1] [%] with C[C@H](NS(=O)(=O)c1ccccc1)C(=O)OCC(=O)NC(=O)Nc1ccc2c(c1)OCCO2 reads 24.8
# percent response (vesicle binding) (at 7.7 µM) [%] with COc1cccc(CN(C)CC(=O)NNC(=O)c2ccc(Cl)cc2)c1 reads 262
# percent response (vesicle binding) (at 7.7 µM) [%] with COc1ccc(N2CCN(c3c(S(=O)(=O)c4ccccc4)cnc4ccc(OC)cc34)CC2)cc1 reads 250
# double positive events [1] [%] with CC(=O)c1ccc(NC(=O)c2ccc3c(Cl)c4c(nc3c2)CCCC4)cc1 reads 17.6
# percent response (vesicle binding) (at 7.7 µM) [%] with CC(=O)Nc1ccc2nc(C3CC3)n(Cc3ccc(Cl)cc3)c(=O)c2c1 reads 287

# Next results follow.

Structure (SMILES),double positive events (at 7.7 µM) [%],double positive events [1] [%],percent response (vesicle binding) (at 7.7 µM) [%]
CNCc1cn2cc(Cl)ccc2n1,19.8,2.2,316
Cc1ccc(OCCN2C(=O)c3ccccc3C2=O)c(C)c1,10.2,14.9,227
Cc1ccc(S(=O)(=O)Nc2ccccc2C=Nc2cccc(C)c2C)cc1,28.6,19,208
COc1ccc(NC(=O)[C@H](C)NC(=O)C2CCN(S(=O)(=O)c3ccc(C)cc3)CC2)cc1,10.7,15.7,166
O=C(COc1ccc(F)cc1)Nc1nnc(C2CCCCC2)s1,24.6,10.9,117
COc1cccc(-c2nc(NCC3CCCO3)c3ccccc3n2)c1O (centres undefined),10.9,22.4,191
CCOC(=O)c1ccc(-n2c(C)nc3c(cnn3-c3ccccc3Cl)c2=O)cc1,13,6.9,135
CC1CCCC(C)N1CCNC(=O)CCc1nnc2n(Cc3ccccc3)c(=O)c3ccccc3n12 (centres undefined),29.4,16.9,384
COc1ccc(C(=O)N2CCN(c3ccc(C)cc3C)CC2)cc1OC,16.3,22.1,97.4
COc1ccc(CNC(=O)c2ccc3oc(C(C)C)nc3c2)cc1,18.5,27.8,177
CC(=O)Nc1cccc(NC(=O)COC(=O)CO/N=C(\C)c2ccc3c(c2)OCO3)c1,33.8,9.2,322
NS(=O)(=O)c1ccc(CCNC(=O)C2CCN(S(=O)(=O)c3cccc4cccnc34)CC2)cc1,14.2,10.7,483
COc1ccc(C)cc1NC(=O)c1cc(-c2ccccc2)nc2c1cnn2C(C)C,9.6,18.3,150
CC(N)c1ccc(Cl)cc1Cl (centres undefined),39.3,8.9,308
CC(C)=CCC[C@](C)(O)C1CC[C@]2(C)C1[C@H](O)CC1[C@@]3(C)CC[C@H](O[C@@H]4O[C@H](CO)[C@@H](O)[C@H](O)[C@H]4O[C@@H]4O[C@H](CO)[C@@H](O)[C@H](O)[C@H]4O)C(C)(C)C3CC[C@]12C (some centres undefined),10.9,31.7,402
COc1ccccc1C(=O)NC(=S)Nc1ccc(S(=O)(=O)N2CCN(C)CC2)cc1,18.4,19,226
COc1cc(/C=C/C(=O)O)cc(S(=O)(=O)N(C)CCO)c1OC,7.4,35.3,240
Cc1ccc(CNC(=O)C2CCN(S(=O)(=O)c3cnc[nH]3)CC2)cc1,32.6,13,288
COc1ccc2c(c1)c(=O)cc(-c1ccccc1)n2C,35.8,27.5,507
Cc1ccc(S(=O)(=O)/N=C2/NC(=O)/C(=C/c3ccccc3)S2)cc1,9.1,10.8,185
COc1ccc(Cl)cc1NC(=O)CN(C)C(=O)c1ccc(-n2nc(C)cc2C)cc1,36.2,27.1,440
CN(C(=O)c1ccc(=O)n(Cc2ccc(Cl)cc2)c1)c1ccccc1,15.1,14.2,372
O=C(CN1CCN(CC(=O)Nc2ccccc2Cl)CC1)NCC1(N2CCCCC2)CCCCC1,7.4,25.3,292
Cc1cccc(NC(=O)CNC(=O)C(NC(=O)Cc2ccccc2)C(C)C)c1C (centres undefined),16.2,24.4,360
Clc1cccc(N/N=C(\Cc2nc3ccccc3[nH]2)c2ccccc2)c1,22.9,10.9,150
O=C(Nc1cc(Cl)c(O)c(Cl)c1)C1CCCO1 (centres undefined),12.3,24.8,208
